Primary screen of a compound library

Data taken from ChEMBL document CHEMBL3988442, “University of Dundee, Small-Polar-MMV Screening Library” (2021).

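Viability assay of Plasmodium falciparum sporozoites; the read-out is not stated. The concentration is filed as 10 mM, unlikely as a test dose, so the dose is not known. Direction is inferred from retests: higher values go with lower viability. Strong results were mostly tested again. Of about 34,000 compounds tested this way, about 280 (0.84%) reached 50% or more in at least one test.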

Results are given as percent effect.
The controls that fix the scale are not given in the record; negative values are as filed.
The compounds are a random part of those screened.
Two or more numbers in one place are separate tests of the same structure; such repeats can differ widely.

{"structure": "O=C(c1ccco1)N1CCC2(CCC(=O)N2Cc2ccccc2)CC1", "effect": 1.664}
{"structure": "Cc1n[nH]c(C2CN(Cc3nnc(C4CC4)n3C)CCO2)n1", "stereo": "stereo not shown", "effect": -9.142}
{"structure": "Cc1cnn(CC(=O)N2CCCN(c3ncccc3C#N)CC2)c1", "effect": 5.932}
{"structure": "CN1CC(c2ccccc2)CC12CCN(C(=O)c1cncc(Cl)c1)CC2", "stereo": "stereo not shown", "effect": 7.173}
{"structure": "[H][C@]12CCC(=O)N(c3ccccc3)[C@@]1([H])CCN2C(=O)c1ccc(C#N)cc1", "effect": -8.42}
{"structure": "Cc1nc2cc(=O)[nH]n2c(C)c1CC(=O)Nc1ccc2ccccc2n1", "effect": -3.957}
{"structure": "COc1ccc(OCCN2CCN(Cc3nccn3C)CC2)cc1", "effect": -20.74}
{"structure": "Cc1cnc(NC(C)Cc2cnccn2)nc1N(C)C", "stereo": "stereo not shown", "effect": -11.93}
{"structure": "COCCN1C(=O)CC(c2cccnc2)C12CCN(C(=O)C1CC1)CC2.O=C(O)C(F)(F)F", "stereo": "stereo not shown", "effect": 6.305}
{"structure": "CCCNC(=O)c1cncc(CC2CCCN(C)C2)c1", "stereo": "stereo not shown", "effect": -0.1788}
{"structure": "[H][C@@]12CO[C@@H](CNS(C)(=O)=O)[C@]1([H])CCN(C(=O)c1ccc[nH]1)C2", "effect": -4.221}
{"structure": "COc1ccc(CN2CC[C@@H](O)[C@@H]2Cc2ccccc2)cc1.O=C(O)C(F)(F)F", "effect": 9.868}
{"structure": "CCCc1nc(C)cc(N2CCC3(CCC(=O)N(CCOC)C3)CC2)n1", "effect": 4.152}
{"structure": "Cc1ccc(N2CCc3sc(C(=O)NCCN4CCCC4)cc32)nn1", "effect": 5.877}
{"structure": "CC(C)c1cc(CSCCC(=O)O)no1", "effect": 18.47}
{"structure": "CCOc1ncccc1CNC(=O)N1CCCC1c1cc(C)no1", "stereo": "stereo not shown", "effect": -2.146}
{"structure": "Cn1nccc1-c1ccc2nc(C3CCNCC3)nn2c1", "effect": 12.65}
{"structure": "CNc1ncc(C(=O)N2CCOC(C(=O)NC3CCCC3)C2)cn1", "stereo": "stereo not shown", "effect": 9.881}
{"structure": "O=C(NCC(O)CN1CCc2ccccc2C1)Nc1cccnc1", "stereo": "stereo not shown", "effect": -2.081}
{"structure": "Cc1ccc2[nH]c(C3CCN(CC(N)=O)CC3)nc2c1", "effect": -2.325}
{"structure": "Cc1nc(CSCCC(=O)NCc2ccc(N(C)C)cc2)cs1", "effect": -5.429}
{"structure": "Cc1cccc(C(=O)N(CC(=O)O)CC(C)C)c1", "effect": 0.09158}
{"structure": "COc1ccnc(NC(=O)c2cnccn2)c1", "effect": "-43.67 & 35.7 & -51.55"}
{"structure": "CC(C)C(C(=O)N1CCN(c2ccncc2)CC1)n1cncn1", "stereo": "stereo not shown", "effect": -7.415}
{"structure": "CN(CC(F)(F)F)C(=O)Cn1cc(NC(=O)C(C)(C)C)cn1", "effect": -13.95}
{"structure": "CC(=O)NCCC(=O)NCc1cc(Br)ccc1OC(F)F", "effect": -22.55}
{"structure": "[H][C@]12CN(Cc3ccc(OC)cc3)C(=O)[C@@]1([H])CN(S(=O)(=O)C1CC1)C2", "effect": 6.843}
{"structure": "Cc1ccc(CN2CCN(C)c3ncccc3C2)o1", "effect": -11.3}
{"structure": "Cc1nc(CN(Cc2ccccc2F)C2CCC2)no1", "effect": -11.05}
{"structure": "CN(C)C(=O)N1CC[C@@H](O)[C@@H]1Cc1ccccc1", "effect": -11.19}
{"structure": "O=C(O)C(F)(F)F.[H][C@@]12CN(Cc3ccccn3)C[C@]1([H])CN(C(=O)Cc1ccc(OC)cc1)C2", "effect": -6.743}
{"structure": "COCC(O)CN(C)C(=O)NC1CCN(Cc2ccccn2)CC1", "stereo": "stereo not shown", "effect": -0.3271}
{"structure": "N#Cc1cccnc1N1CCC(C2CCCCCN2C(N)=O)CC1", "stereo": "stereo not shown", "effect": 3.608}
{"structure": "N#Cc1ccsc1NC(=O)CCN1CCn2c(nnc2C2CC2)C1", "effect": -4.466}
{"structure": "COc1cc(CN2CC[C@H](NC(C)=O)[C@@H](O)CC2)ccc1F", "effect": 17.26}
{"structure": "Cc1nccn1CCN(C)C(=O)c1cn(CC2CCCCC2)nn1", "effect": -6.983}
{"structure": "Cc1cccnc1NCCNC(=O)[C@H]1CNC[C@@H](C(=O)N2CCCC2)C1", "effect": -19.55}
{"structure": "O=C(O)C(F)(F)F.O=C(O)C(F)(F)F.[H][C@@]12CC(=O)N(Cc3cccc(C)n3)[C@@]1([H])CCN2Cc1ccc(CC)o1", "effect": 5.054}
{"structure": "Cc1ccccc1C1(CNC(=O)c2ccc(S(C)(=O)=O)cc2)CC1", "effect": -17.69}
{"structure": "CC1=Nc2c(c(=O)[nH]n2C(C)C)C(c2ccccc2)S1", "stereo": "stereo not shown", "effect": 8.553}
{"structure": "CN(C)C(=O)c1cccnc1N1CCOC(c2ccc(Cl)cc2)C1", "stereo": "stereo not shown", "effect": "-27.15 & -28.77"}
{"structure": "Fc1ccccc1C1NCCc2cc3c(cc21)OCCO3", "stereo": "stereo not shown", "effect": -5.646}
{"structure": "COc1ccccc1CNc1cnn(CC(F)F)c1", "effect": 5.072}
{"structure": "CCc1nc(CN2CCCN(C(=O)c3cnc(C)cn3)CC2)cs1", "effect": -9.026}
{"structure": "COc1cc(Cl)ccc1C(=O)N1CCCC(c2cc(C)[nH]n2)C1", "stereo": "stereo not shown", "effect": -1.288}
{"structure": "NCCc1cccc(CN2CCN(c3ccccc3)C(=O)C2)c1", "effect": 12.15}
{"structure": "CC1N(c2cnn(C)c2)C(=O)COC12CCN(c1ncccn1)CC2.O=C(O)C(F)(F)F", "stereo": "stereo not shown", "effect": -8.99}
{"structure": "CCn1ncc2c1CCCC2NCc1ccc2c(c1)OCCO2", "stereo": "stereo not shown", "effect": "33.22 & 25.15"}
{"structure": "COc1ccc(NC(=O)Cn2nc(C)c(C)cc2=O)cc1Cl", "effect": -13.07}
{"structure": "CCc1nnc(Nc2cccc(C3CCN(C(C)=O)CC3)n2)s1", "effect": 3.826}
{"structure": "CC(=O)N1Cc2nc(C(=O)NCCc3cccnc3)oc2C1", "effect": 13.64}
{"structure": "Cc1n[nH]cc1CNc1ccc2c(c1)CN(C(=O)OC(C)(C)C)CC2", "effect": -0.4362}
{"structure": "COCCC(=O)N1CCC2(COCc3cnc(-c4ccccc4)nc32)C1", "stereo": "stereo not shown", "effect": -6.574}
{"structure": "CC(C)c1nn(C)c(N(C)C)c1CNCc1ccccc1CO.Cl", "effect": 8.358}
{"structure": "C[C@H](O)CNc1cc(-c2ccncc2)ncn1", "effect": -3.302}
{"structure": "Cc1ccc(-c2cccc(-c3ccn(CCN4CCCC4)n3)c2)nn1", "effect": -13.76}
{"structure": "CNc1cc2c(nn1)CCN(C(=O)c1cccc3c1OCO3)C2", "effect": 6.051}
{"structure": "CC(C)(C)c1nnc(CN2CCOC(Cn3cncn3)C2)o1", "stereo": "stereo not shown", "effect": 4.348}

For reference, 7 entries once more:

structure,effect
CCOc1ncccc1CNC(=O)N1CCCC1c1cc(C)no1 (stereo not shown),-2.146
CCCc1nc(C)cc(N2CCC3(CCC(=O)N(CCOC)C3)CC2)n1,4.152
CC(C)(C)c1nnc(CN2CCOC(Cn3cncn3)C2)o1 (stereo not shown),4.348
COCC(O)CN(C)C(=O)NC1CCN(Cc2ccccn2)CC1 (stereo not shown),-0.3271
O=C(NCC(O)CN1CCc2ccccc2C1)Nc1cccnc1 (stereo not shown),-2.081
Cc1nc2cc(=O)[nH]n2c(C)c1CC(=O)Nc1ccc2ccccc2n1,-3.957
COc1ccc(OCCN2CCN(Cc3nccn3C)CC2)cc1,-20.74